Results on one sequence are retold here after article PMC11643816.

Sequences of proteins named here, by UniProt entry; tags and fusion partners are left off. Residues count along the entry.
UniProt P02754, 17-178: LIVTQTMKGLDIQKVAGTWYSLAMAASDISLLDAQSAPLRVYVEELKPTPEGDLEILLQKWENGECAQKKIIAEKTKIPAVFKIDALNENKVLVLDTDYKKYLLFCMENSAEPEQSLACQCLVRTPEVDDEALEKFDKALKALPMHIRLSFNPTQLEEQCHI
UniProt P02769, 25-607: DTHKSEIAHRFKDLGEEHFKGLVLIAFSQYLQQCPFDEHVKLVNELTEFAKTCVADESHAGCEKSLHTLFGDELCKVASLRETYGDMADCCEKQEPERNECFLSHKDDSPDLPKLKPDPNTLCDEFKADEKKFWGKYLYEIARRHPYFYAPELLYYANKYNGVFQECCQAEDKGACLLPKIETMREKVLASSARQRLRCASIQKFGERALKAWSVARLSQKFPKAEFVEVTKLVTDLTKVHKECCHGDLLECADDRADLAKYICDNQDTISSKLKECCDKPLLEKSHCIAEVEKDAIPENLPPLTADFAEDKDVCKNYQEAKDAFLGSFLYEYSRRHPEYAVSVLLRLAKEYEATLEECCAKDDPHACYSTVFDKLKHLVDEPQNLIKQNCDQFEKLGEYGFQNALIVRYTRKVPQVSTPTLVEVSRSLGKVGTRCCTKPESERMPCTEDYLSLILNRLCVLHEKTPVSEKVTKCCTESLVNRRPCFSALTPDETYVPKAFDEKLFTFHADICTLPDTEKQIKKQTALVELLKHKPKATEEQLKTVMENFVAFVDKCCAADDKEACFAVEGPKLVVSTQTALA

For some assays here: For at least one entry, the source does not settle the construct or the ends of the probe. The direction of at least one scale is not stated here.

Data set [1] deals with beta-lactoglobulin (UniProt P02754). The experiment in a line: QCM bond rupture sandwich. The settings on record: 100 ng/mL, sandwich with aptamer II beads; 5'-SH-(CH2)6; 30 °C, 70 min per binding step; aptamer I 3 μmol/L on gold with MCH block; aptamer II beads stored in 10 mmol/L PBS; binding buffer, salt and pH not stated; single-stranded DNA; counted as no binding.
Data set [2] has as its target bovine serum albumin (BSA) (bovine) (UniProt P02769). The experiment in a line: QCM bond rupture sandwich. The following applies: 100 ng/mL, sandwich with aptamer II beads; 5'-SH-(CH2)6; 30 °C, 70 min per binding step; aptamer I 3 μmol/L on gold with MCH block; aptamer II beads stored in 10 mmol/L PBS; binding buffer, salt and pH not stated; single-stranded DNA; counted as no binding.

On to “TGGTGCTGCCCCTAGTCTCCGGCTGCTTCTTGG [aptamer I]”, for which the values for the binding signal (% of LF signal) in data set [1] and in data set [2] were 9.66 and 8.9, respectively.
